No constants are given. Whether binding was seen depends on the method and setting. Binding calls can cover weak binding; strength is not graded here.
Target: GroEL14-GLuc (tetradecameric GroEL14 with incorporated Gaussia princeps luciferase) (E. coli | Gaussia princeps)
Test: FRET or BRET; BRET from purified GroEL14-GLuc (coelenterazine) to fluorescein-labeled denatured proteins; bioluminescence spectra; both purified

binding: binds
B1: fluorescein-labeled denatured malate dehydrogenase (enzyme, UniProt P00346 25-338)
chain: AKVAVLGASGGIGQPLSLLLKNSPLVSRLTLYDIAHTPGVAADLSHIETRATVKGYLGPEQLPDCLKGCDVVVIPAGVPRKPGMTRDDLFNTNATIVATLTAACAQHCPDAMICIISNPVNSTIPITAEVFKKHGVYNPNKIFGVTTLDIVRANAFVAELKGLDPARVSVPVIGGHAGKTIIPLISQCTPKVDFPQDQLSTLTGRIQEAGTEVVKAKAGAGSATLSMAYAGARFVFSLVDAMNGKEGVVECSFVKSQETDCPYFSTPLLLGKKGIEKNLGIGKISPFEEKMIAEAIPELKASIKKGEEFVKNMK
modifications: fluorescein (5-(and 6)-carboxyfluorescein succinimidyl ester)

— paper PMC9965216
